1 molecule from article doi:10.1101/2022.11.10.516022 can be followed below.

No constants are given. Whether binding was seen depends on the method and setting. In cells and extracts the contact can be indirect. Here binding means that the protein was enriched with, or labelled near, the bait; the list need not be complete.

Experiment [1] addresses ApoL6-HA overexpressed in differentiated 3T3-L1 adipocytes (mouse). Briefly: affinity purification with mass spectrometry.
The target in experiment [2] is HA-tagged ApoL6 (adipoQ-ApoL6 TG transgene) (mouse). Briefly: affinity purification with mass spectrometry.

B1: endogenous Perilipin 1 (Plin1) (protein, UniProt Q8CGN5 1-517)
chain: MSMNKGPTLLDGDLPEQENVLQRVLQLPVVSGTCECFQKTYNSTKEAHPLVASVCNAYEKGVQGASNLAAWSMEPVVRRLSTQFTAANELACRGLDHLEEKIPALQYPPEKIASELKGTISTRLRSARNSISVPIASTSDKVLGATLAGCELALGMAKETAEYAANTRVGRLASGGADLALGSIEKVVEFLLPPDKESAPSSGRQRTQKAPKAKPSLVRRVSTLANTLSRHTMQTTAWALKQGHSLAMWIPGVAPLSSLAQWGASAAMQVVSRRQSEVRVPWLHNLAASQDESHDDQTDTEGEETDDEEEEEESEAEENVLREVTALPNPRGLLGGVVHTVQNTLRNTISAVTWAPAAVLGTVGRILHLTPAQAVSSTKGRAMSLSDALKGVTDNVVDTVVHYVPLPRLSLMEPESEFRDIDNPSAEAERKGSGARPASPESTPRPGQPRGSLRSVRGLSAPSCPGLDDKTEASARPGFLAMPREKPARRVSDSFFRPSVMEPILGRAQYSQLRKKS
In the case of B1, the binding result in experiment [1] and in experiment [2] was “binds” each time.
